{
  "source": "paper PMC12214875",
  "about": "(Molecular Cancer Therapeutics, 2025)",
  "test_in_all_cases": "Cellular viability assay (resazurin, 7 days)",
  "assay_type_in_all_cases": "cell-based",
  "key": {"GIST430 cells": {"test_system": "GIST430 cells", "conditions": "Homo sapiens, 168 h, GIST430 (KIT exon 11 del.560-576), n=2, read-out: Inhibition of viability IC50 ± SD", "method": "(§1) Cells were seeded in culture medium supplemented with 15% FCS in 96-well plates with 0.1 × 10^4 cells (GIST48B and Kasumi-1), 0.3 × 10^4 cells (GIST430), or 0.25 × 10^4 cells (GIST430/654) per well. The following day, when cells were about 15% confluent, treatment with serial dilutions of test compounds or DMSO was performed in triplicate. After 7 days, cell viability was determined by adding 10 μL resazurin reagent (R&D Systems, #AR002) per well and fluorescence (544 nm excitation/590 nm emission) was measured after 4 to 5 hours. Fluorescent counts from wells containing medium only were subtracted as background from all cell samples. Cell viability levels from solvent-treated control cells were set as maximum signal (100%) and compound-treated samples were calculated as the percent of control. Fitting of dose–response curves and calculation of IC50 values were performed with nonlinear least squares regression analysis using GraphPad Prism software (RRID: SCR_002798; version 8)."}, "GIST430/654 cells": {"test_system": "GIST430/654 cells", "conditions": "GIST-430/654, 168 h, GIST430/654 (KIT exon 11/13 del.560-576 / V654A), n=2, read-out: Inhibition of viability IC50 ± SD", "method": "as §1"}, "GIST48B cells": {"test_system": "GIST48B cells", "conditions": "168 h, GIST48B (KIT wildtype), n=2, read-out: Inhibition of viability IC50 ± SD", "method": "as §1"}, "Kasumi-1 cells": {"test_system": "Kasumi-1 cells", "conditions": "Homo sapiens, 168 h, Kasumi-1 (KIT exon 17 N822K), n=2, read-out: Inhibition of viability IC50 ± SD", "method": "as §1"}},
  "data": [
    {"compound": "Cc1ccc(NC(=O)c2ccc(CN3CCN(C)CC3)cc2)cc1Nc1nccc(-c2cccnc2)n1", "note": "[Imatinib]", "values": [
      {"measurement": "IC50", "setting": "GIST430 cells", "value": "18 ± 4", "unit": "nM"},
      {"measurement": "IC50", "setting": "GIST430/654 cells", "value": "1030 ± 168", "unit": "nM"},
      {"measurement": "IC50", "setting": "GIST48B cells", "value": "> 30000", "unit": "nM"},
      {"measurement": "IC50", "setting": "Kasumi-1 cells", "value": "205 ± 5", "unit": "nM"}
    ]}
  ]
}
